The record followed here is patent US20250268856A1, “Pain Relieving Method” (Animal Ethics Pty Ltd, priority 2019, published 2025).

For this series the following is noted: in vivo.

For the molecule `CCN(CC)CC(=O)Nc1c(C)cccc1C` [lidocaine/lignocaine, lidocaine], the “Plasma levels (in the range considered therapeutic)” value is 1000 to 5000 ng/mL.
